# According to publication PMC5437018:
# Chains of the proteins cited; added tags and fusions are not shown.
# UniProt Q6PR54: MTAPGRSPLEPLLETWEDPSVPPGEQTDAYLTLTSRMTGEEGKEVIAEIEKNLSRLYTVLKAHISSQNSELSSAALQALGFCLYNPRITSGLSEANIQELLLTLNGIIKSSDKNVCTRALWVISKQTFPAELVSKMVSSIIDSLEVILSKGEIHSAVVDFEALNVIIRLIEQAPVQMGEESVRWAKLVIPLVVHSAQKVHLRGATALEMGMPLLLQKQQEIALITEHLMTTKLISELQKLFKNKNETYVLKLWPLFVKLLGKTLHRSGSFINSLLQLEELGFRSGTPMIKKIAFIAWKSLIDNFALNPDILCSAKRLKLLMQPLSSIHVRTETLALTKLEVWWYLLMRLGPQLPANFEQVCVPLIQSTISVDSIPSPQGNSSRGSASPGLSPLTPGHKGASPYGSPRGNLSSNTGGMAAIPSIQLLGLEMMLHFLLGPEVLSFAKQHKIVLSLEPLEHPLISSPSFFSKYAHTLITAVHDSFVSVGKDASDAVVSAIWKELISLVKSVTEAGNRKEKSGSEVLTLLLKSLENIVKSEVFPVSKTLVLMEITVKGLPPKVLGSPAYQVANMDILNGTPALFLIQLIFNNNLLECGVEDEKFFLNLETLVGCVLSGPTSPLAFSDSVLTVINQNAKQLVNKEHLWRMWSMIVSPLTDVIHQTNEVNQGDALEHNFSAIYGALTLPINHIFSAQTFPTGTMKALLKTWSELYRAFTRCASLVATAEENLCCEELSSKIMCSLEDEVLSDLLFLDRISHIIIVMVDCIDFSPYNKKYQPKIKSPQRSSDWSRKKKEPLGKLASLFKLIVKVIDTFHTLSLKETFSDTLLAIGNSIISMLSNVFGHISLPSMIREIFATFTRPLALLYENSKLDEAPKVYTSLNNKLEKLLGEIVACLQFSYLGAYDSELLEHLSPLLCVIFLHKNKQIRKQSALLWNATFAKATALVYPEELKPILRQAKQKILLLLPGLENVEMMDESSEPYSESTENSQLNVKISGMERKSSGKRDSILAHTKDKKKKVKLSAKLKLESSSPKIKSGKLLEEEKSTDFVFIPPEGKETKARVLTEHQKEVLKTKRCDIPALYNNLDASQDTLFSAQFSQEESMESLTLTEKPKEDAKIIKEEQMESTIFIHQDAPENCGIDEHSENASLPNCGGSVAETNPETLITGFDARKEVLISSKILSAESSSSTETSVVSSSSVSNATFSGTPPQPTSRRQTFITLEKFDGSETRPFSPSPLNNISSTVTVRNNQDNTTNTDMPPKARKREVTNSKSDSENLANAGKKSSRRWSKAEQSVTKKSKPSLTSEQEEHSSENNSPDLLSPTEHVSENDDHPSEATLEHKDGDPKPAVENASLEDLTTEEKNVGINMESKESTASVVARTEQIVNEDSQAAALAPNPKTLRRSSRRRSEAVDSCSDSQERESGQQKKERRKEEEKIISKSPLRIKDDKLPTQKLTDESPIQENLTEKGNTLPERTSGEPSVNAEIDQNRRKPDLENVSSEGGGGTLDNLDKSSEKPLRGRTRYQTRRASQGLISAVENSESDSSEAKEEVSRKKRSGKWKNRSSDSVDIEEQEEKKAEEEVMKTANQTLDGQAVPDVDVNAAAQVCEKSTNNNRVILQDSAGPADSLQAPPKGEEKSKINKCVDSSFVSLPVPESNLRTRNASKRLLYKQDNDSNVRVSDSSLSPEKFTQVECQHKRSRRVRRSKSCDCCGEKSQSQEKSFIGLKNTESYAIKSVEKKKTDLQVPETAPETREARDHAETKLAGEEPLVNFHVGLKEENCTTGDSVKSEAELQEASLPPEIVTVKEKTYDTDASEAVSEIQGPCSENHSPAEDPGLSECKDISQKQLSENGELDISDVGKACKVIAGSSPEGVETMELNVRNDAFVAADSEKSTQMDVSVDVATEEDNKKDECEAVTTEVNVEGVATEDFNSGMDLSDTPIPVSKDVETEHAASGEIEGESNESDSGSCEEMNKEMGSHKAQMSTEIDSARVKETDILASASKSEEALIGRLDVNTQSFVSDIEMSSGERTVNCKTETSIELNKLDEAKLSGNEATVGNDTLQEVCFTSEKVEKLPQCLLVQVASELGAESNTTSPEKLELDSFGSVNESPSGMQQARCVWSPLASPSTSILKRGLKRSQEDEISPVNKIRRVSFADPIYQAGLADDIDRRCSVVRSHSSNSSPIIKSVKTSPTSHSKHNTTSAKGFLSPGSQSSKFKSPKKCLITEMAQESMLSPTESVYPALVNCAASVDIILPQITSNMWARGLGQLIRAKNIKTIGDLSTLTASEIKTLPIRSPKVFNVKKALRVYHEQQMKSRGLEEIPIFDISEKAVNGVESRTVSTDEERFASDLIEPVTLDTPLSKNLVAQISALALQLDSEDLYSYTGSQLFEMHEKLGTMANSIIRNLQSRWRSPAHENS
# Results are given in words; binding and its absence hold for the method and conditions named. Binding seen in cells or lysates may run through a third protein. Here binding means that the protein was enriched with, or labelled near, the bait; the list need not be complete.
# Target: Rif1^FLAG-HA2 (endogenous mouse Rif1 carrying a knock-in FLAG-HA2 tag) (mouse) (UniProt Q6PR54)
# Experiment: affinity purification with mass spectrometry; anti-Flag M2 affinity gel IP of Rif1^FH from nuclear extracts of Rif1^FH/+ mouse ESCs (Benzonase, 0.2% Triton X-100), overnight 4 °C, washes with 150 mM NaCl and 0.1% Triton X-100, Flag-peptide elution; label-free quantitation against Rif1^+/+ ESCs
row,binding,Binder
1,binds,"Lamin B2 (protein, UniProt P21619 1-596) MASLPPHAGPATPLSPTRLSRLQEKEELRELNDRLAHYIDRVRALELENDRLLLRISEKEEVTTREVSGIKTLYESELADARRVLDETARERARLQIEIGKVQAELEEARKSAKKREGELTVAQGRVKDLESLFHRSEAELATALSDKQGLETEVAELRAQLAKAEDGHAVAKKQLEKETLMRVDLENRCQSLQEELAFSKSVFEEEVRETRRRHERRLVEVDSSRQQEYDFKMAQALEDLRSQHDEQVRLYRVELEQTYQAKLDNAKLLSDQNDKAAHAAREELKEARMRVESLSYQLLGLQKQASAAENHIHELEEALAGERDKFRKMLDAKEQEMTEVRDAMQQQLAEYQELLDIKLALDMEISAYRKLLEGEEERLKLSPSPSSRITISRATSSSSSSSGVGMSVGQGRGKRRRLETEDTSGSPSRASRVSSGSRLAQQTVATGVVNIDEVDPEGRFVRLKNSSDKDQSLGNWRIKRQVLEGEDIAYKFTPKYVLRAGQTVTVWAAGAGATHSPPSTLVWKSQTNWGPGESFRTALVSADGEEVAVKAAKHSSVQGRENGEEEEEEEAEFGEEDLFHQQGDPRTTSRGCRLM"
2,binds,"Proteasome (Prosome, macropain) 26S subunit, non-ATPase, 13 (protein, UniProt Q9WVJ2 1-376) MKDVPAFLQQSQSSGPGQAAVWHRLEELYTKKLWHQLTLEVLDFVQDPCFAQGDGLIKLYENFISEFEHRVNPLSLVEIILHVVRQMTDPNVALTFLEKTREKVKSSDEAVILCKTAIGALKLNIGDLQATKETIEDVEEMLNNLPGVTSVHSRFYDLSSKYYQTIGNHASYYKDALRFLGCVDIKDLPVSEQQERAFTLGLAGLLGEGVFNFGELLMHPVLESLRDTDRQWLIDTLYAFNSGAVDRFQTLKCAWGQQPDLAANEAQLLRKIQLLCLMEMTFTRPANHRQLTFEEIAKSAKITVNKVELLVMKALSVGLVRGSIDEVDKRVHMTWVQPRVLDLQQIKGMKDRLELWCTDVKSMEMLVEHQAQDILT"
3,binds,"Lamin B1 (protein, UniProt P14733 1-588) MATATPVQQQRAGSRASAPATPLSPTRLSRLQEKEELRELNDRLAVYIDKVRSLETENSALQLQVTEREEVRGRELTGLKALYETELADARRALDDTARERAKLQIELGKFKAEHDQLLLNYAKKESDLSGAQIKLREYEAALNSKDAALATALGDKKSLEGDLEDLKDQIAQLEASLSAAKKQLADETLLKVDLENRCQSLTEDLEFRKNMYEEEINETRRKHETRLVEVDSGRQIEYEYKLAQALHEMREQHDAQVRLYKEELEQTYHAKLENARLSSEMNTSTVNSAREELMESRMRIESLSSQLSNLQKESRACLERIQELEDMLAKERDNSRRMLSDREREMAEIRDQMQQQLSDYEQLLDVKLALDMEISAYRKLLEGEEERLKLSPSPSSRVTVSRASSSRSVRTTRGKRKRVDVEESEASSSVSISHSASATGNVCIEEIDVDGKFIRLKNTSEQDQPMGGWEMIRKIGDTSVSYKYTSRYVLKAGQTVTVWAANAGVTASPPTDLIWKNQNSWGTGEDVKVILKNSQGEEVAQRSTVFKTTIPEEEEEEEEEPIGVAVEEERFHQQGAPRASNKSCAIM"
